# Drug screen on melanoma cell lines: cell count

Values as published with doi:10.1371/journal.pone.0140310, rounded.

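Human melanoma cell lines in 1,536-well plates were treated with two drugs together for 72 h, then fixed, stained and imaged. Each value is the count of nuclei relative to DMSO-treated wells, in %, so that 100 equals the control. Every drug was used at one fixed concentration, the higher of two screened. These are primary screening values without error estimates.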 Only some of the drugs and lines screened are listed, without regard to their results.

Compounds and concentrations:
FK866: O=C(/C=C/c1cccnc1)NCCCCC1CCN(C(=O)c2ccccc2)CC1 at 0.05 µM
everolimus: CO[C@H]1C[C@@H]2CC[C@@H](C)[C@@](O)(O2)C(=O)C(=O)N2CCCC[C@H]2C(=O)O[C@H]([C@H](C)C[C@@H]2CC[C@@H](OCCO)[C@H](OC)C2)CC(=O)[C@H](C)/C=C(\C)[C@@H](O)[C@@H](OC)C(=O)[C@H](C)C[C@H](C)/C=C/C=C/C=C/1C at 0.1 µM
PLX4720: CCCS(=O)(=O)Nc1ccc(F)c(C(=O)c2c[nH]c3ncc(Cl)cc23)c1F at 0.4 µM
dovitinib: CN1CCN(c2ccc3nc(-c4c(N)c5c(F)cccc5[nH]c4=O)[nH]c3c2)CC1 at 0.5 µM
tipifarnib: Cn1cncc1[C@@](N)(c1ccc(Cl)cc1)c1ccc2c(c1)c(-c1cccc(Cl)c1)cc(=O)n2C at 0.05 µM
darinaparsin: C[As](C)SC[C@H](NC(=O)CC[C@H](N)C(=O)O)C(=O)NCC(=O)O at 2 µM
gemcitabine: Nc1ccn([C@@H]2O[C@H](CO)[C@@H](O)C2(F)F)c(=O)n1 at 0.002 µM
GSK650394: O=C(O)c1ccc(-c2c[nH]c3ncc(-c4ccccc4)cc23)cc1C1CCCC1 at 0.8 µM

- darinaparsin + everolimus | COLO 792: 46.2; COLO 800: 57.9; WM3619: 51.7; WM451Lu: 58.9; C32: 76.5; COLO 829: 70.0
- PLX4720 + darinaparsin | COLO 792: 135; COLO 800: 88.1; WM3619: 93.2; WM451Lu: 53.1; C32: 91.6; COLO 829: 72.5
- GSK650394 + tipifarnib | COLO 792: 68.0; COLO 800: 53.2; WM3619: 89.5; WM451Lu: 64.6; C32: 90.8; COLO 829: 79.7
- GSK650394 + dovitinib | COLO 792: 46.9; COLO 800: 52.2; WM3619: 53.5; WM451Lu: 71.8; C32: 65.4; COLO 829: 68.0
- GSK650394 + PLX4720 | COLO 792: 71.1; COLO 800: 64.2; WM3619: 75.3; WM451Lu: 70.2; C32: 84.1; COLO 829: 68.3
- tipifarnib + PLX4720 | COLO 792: 68.2; COLO 800: 105; WM3619: 84.4; WM451Lu: 55.5; C32: 81.5; COLO 829: 68.1
- darinaparsin + FK866 | COLO 792: 41.2; COLO 800: 23.5; WM3619: 87.5; WM451Lu: 73.9; C32: 89.3; COLO 829: 49.1
- everolimus + tipifarnib | COLO 792: 48.0; COLO 800: 76.0; WM3619: 85.6; WM451Lu: 78.2; C32: 93.1; COLO 829: 76.4
- dovitinib + PLX4720 | COLO 792: 53.8; COLO 800: 51.4; WM3619: 79.8; WM451Lu: 52.1; C32: 65.6; COLO 829: 62.4
- gemcitabine + tipifarnib | COLO 792: 76.7; COLO 800: 33.1; WM3619: 66.1; WM451Lu: 48.4; C32: 80.6; COLO 829: 51.9
- everolimus + PLX4720 | COLO 792: 53.6; COLO 800: 74.6; WM3619: 59.7; WM451Lu: 38.6; C32: 82.1; COLO 829: 74.2
- FK866 + everolimus | COLO 792: 37.0; COLO 800: 27.8; WM3619: 65.1; WM451Lu: 74.2; C32: 86.8; COLO 829: 81.6
- dovitinib + FK866 | COLO 792: 38.4; COLO 800: 20.7; WM3619: 63.6; WM451Lu: 93.3; C32: 75.9; COLO 829: 50.3
- PLX4720 + gemcitabine | COLO 792: 77.6; COLO 800: 22.8; WM3619: 51.2; WM451Lu: 39.0; C32: 77.1; COLO 829: 64.7
- FK866 + PLX4720 | COLO 792: 40.0; COLO 800: 33.4; WM3619: 73.9; WM451Lu: 61.8; C32: 84.3; COLO 829: 75.3
- darinaparsin + tipifarnib | COLO 792: 74.7; COLO 800: 52.5; WM3619: 102; WM451Lu: 46.4; C32: 76.7; COLO 829: 71.1
- GSK650394 + FK866 | COLO 792: 46.8; COLO 800: 31.1; WM3619: 82.9; WM451Lu: 93.7; C32: 95.4; COLO 829: 78.6
- dovitinib + everolimus | COLO 792: 34.5; COLO 800: 38.8; WM3619: 57.1; WM451Lu: 58.9; C32: 78.0; COLO 829: 61.4
- dovitinib + darinaparsin | COLO 792: 56.9; COLO 800: 59.8; WM3619: 74.0; WM451Lu: 71.8; C32: 80.0; COLO 829: 52.3
- FK866 + tipifarnib | COLO 792: 47.5; COLO 800: 57.4; WM3619: 73.2; WM451Lu: 76.7; C32: 88.9; COLO 829: 69.0
- everolimus + GSK650394 | COLO 792: 59.8; COLO 800: 51.6; WM3619: 76.1; WM451Lu: 83.0; C32: 97.4; COLO 829: 82.0
- gemcitabine + everolimus | COLO 792: 37.9; COLO 800: 90.3; WM3619: 44.0; WM451Lu: 41.7; C32: 61.4; COLO 829: 51.5
- gemcitabine + FK866 | COLO 792: 16.1; COLO 800: 22.9; WM3619: 50.0; WM451Lu: 54.0; C32: 84.1; COLO 829: 44.0
- gemcitabine + GSK650394 | COLO 792: 85.2; COLO 800: 62.5; WM3619: 65.6; WM451Lu: 55.9; C32: 86.8; COLO 829: 56.9
- darinaparsin + GSK650394 | COLO 792: 63.0; COLO 800: 5.1; WM3619: 73.4; WM451Lu: 77.7; C32: 81.7; COLO 829: 54.2

2 of the entries, repeated:

| Combination | COLO 792 | COLO 800 | WM3619 | WM451Lu | C32 | COLO 829 |
|---|---|---|---|---|---|---|
| everolimus + tipifarnib | 48.0 | 76.0 | 85.6 | 78.2 | 93.1 | 76.4 |
| PLX4720 + gemcitabine | 77.6 | 22.8 | 51.2 | 39.0 | 77.1 | 64.7 |